Experiment [1] has as its target T1, FLAG-CBirA*-Cdc25C WT (UniProt P30307).
T1 sequence: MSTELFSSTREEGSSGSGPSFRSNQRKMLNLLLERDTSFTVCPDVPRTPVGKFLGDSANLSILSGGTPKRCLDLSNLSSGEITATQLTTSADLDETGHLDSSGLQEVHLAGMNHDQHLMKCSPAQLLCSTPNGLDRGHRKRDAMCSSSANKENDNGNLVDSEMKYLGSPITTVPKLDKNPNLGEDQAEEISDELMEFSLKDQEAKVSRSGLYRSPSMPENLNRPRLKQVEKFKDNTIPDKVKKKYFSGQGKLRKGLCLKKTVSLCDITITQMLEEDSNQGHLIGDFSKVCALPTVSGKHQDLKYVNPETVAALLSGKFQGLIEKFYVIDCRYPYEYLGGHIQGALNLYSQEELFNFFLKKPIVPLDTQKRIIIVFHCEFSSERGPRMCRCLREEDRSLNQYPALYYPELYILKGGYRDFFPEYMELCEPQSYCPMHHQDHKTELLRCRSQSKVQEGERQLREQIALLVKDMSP
The experiment can be described thus: co-IP; lysates of HeLa cells transfected with the Myc-NBirA* and FLAG-CBirA* fusions; anti-Myc or anti-FLAG antibody on magnetic beads, overnight at 4 °C, washes with 50 mM Tris pH 7.4, 300 mM NaCl, 1 mM MgCl2, 0.5% NP-40; western blot; untransfected cells as control.

Protein sequences, listed by entry. Tags and fused reporters are not part of them.
UniProt P62258: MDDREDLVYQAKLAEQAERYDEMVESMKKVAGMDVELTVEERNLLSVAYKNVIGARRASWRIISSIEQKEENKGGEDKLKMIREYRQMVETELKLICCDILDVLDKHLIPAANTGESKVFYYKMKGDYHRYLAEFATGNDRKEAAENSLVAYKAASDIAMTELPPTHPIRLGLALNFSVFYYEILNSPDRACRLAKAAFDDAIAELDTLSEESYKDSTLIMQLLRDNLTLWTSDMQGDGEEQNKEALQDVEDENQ
UniProt Q9UKV8: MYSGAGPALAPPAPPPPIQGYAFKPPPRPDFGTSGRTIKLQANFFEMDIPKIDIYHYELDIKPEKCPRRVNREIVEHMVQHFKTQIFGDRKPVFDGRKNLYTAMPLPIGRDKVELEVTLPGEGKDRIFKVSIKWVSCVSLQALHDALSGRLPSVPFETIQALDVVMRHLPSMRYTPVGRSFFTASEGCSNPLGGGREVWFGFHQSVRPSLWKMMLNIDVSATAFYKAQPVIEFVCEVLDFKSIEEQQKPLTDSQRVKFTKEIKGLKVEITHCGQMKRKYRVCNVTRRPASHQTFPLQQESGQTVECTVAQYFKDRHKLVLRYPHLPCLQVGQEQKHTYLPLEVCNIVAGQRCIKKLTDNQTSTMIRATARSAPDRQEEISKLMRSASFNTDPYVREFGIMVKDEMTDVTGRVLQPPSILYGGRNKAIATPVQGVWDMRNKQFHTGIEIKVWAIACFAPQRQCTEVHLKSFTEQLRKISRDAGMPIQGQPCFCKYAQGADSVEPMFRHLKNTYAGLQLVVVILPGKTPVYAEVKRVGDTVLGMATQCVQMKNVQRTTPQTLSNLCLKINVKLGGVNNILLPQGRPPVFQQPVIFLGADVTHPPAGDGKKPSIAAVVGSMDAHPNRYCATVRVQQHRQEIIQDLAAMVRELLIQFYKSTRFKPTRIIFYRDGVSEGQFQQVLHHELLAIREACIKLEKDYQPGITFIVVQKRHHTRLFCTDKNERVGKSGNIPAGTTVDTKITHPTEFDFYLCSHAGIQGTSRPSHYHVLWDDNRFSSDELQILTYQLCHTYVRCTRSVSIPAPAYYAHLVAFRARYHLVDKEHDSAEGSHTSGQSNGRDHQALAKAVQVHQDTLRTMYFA
UniProt Q14008: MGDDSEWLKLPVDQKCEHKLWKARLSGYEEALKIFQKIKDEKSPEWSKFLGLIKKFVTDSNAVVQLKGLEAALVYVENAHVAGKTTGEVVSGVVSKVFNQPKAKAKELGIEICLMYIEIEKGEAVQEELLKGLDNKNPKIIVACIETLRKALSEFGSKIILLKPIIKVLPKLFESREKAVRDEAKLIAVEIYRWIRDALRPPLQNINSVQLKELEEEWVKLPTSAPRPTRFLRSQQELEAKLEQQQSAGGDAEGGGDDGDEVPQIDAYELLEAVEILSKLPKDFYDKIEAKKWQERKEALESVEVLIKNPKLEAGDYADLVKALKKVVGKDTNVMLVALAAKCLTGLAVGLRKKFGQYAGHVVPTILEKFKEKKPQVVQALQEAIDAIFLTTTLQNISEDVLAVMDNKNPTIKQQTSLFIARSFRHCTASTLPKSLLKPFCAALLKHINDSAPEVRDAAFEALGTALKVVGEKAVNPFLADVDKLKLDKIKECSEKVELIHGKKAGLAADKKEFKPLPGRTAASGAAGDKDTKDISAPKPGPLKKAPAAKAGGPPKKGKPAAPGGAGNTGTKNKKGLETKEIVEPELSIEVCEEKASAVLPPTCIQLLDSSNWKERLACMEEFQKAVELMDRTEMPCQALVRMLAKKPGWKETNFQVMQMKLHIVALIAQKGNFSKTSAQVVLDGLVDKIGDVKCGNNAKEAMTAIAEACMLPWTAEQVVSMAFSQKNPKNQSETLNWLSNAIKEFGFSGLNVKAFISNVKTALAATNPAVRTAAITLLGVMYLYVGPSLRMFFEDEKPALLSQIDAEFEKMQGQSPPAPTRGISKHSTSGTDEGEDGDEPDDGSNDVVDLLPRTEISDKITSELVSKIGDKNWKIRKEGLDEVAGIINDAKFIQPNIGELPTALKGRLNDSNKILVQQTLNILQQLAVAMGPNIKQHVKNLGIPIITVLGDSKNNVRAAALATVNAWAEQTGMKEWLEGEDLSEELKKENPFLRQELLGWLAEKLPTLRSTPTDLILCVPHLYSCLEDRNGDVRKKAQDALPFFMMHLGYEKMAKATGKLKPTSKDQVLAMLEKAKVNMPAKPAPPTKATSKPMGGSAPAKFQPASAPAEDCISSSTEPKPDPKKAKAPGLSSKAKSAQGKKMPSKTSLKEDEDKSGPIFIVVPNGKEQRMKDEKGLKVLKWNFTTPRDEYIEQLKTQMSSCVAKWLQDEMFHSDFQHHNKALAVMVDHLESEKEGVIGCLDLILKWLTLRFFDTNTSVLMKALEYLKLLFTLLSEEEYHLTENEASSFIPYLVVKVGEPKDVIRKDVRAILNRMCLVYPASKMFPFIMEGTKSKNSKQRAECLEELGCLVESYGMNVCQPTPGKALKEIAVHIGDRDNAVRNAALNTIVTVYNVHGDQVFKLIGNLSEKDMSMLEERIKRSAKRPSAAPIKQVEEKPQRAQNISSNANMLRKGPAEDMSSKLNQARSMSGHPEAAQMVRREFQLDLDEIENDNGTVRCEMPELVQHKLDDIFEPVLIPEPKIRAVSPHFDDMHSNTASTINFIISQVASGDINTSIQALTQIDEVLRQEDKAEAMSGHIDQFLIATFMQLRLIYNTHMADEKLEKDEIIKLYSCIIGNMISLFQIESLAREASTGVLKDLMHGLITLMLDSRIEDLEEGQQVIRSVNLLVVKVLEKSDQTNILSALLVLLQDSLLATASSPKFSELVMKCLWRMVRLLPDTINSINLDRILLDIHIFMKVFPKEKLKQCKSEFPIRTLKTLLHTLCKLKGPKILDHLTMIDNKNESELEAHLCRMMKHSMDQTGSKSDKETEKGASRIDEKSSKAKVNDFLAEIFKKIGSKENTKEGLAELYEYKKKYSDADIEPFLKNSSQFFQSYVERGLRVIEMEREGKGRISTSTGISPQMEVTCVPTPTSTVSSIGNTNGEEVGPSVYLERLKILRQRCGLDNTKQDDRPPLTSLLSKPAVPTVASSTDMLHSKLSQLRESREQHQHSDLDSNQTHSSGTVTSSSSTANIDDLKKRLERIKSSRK
UniProt Q8NDV7: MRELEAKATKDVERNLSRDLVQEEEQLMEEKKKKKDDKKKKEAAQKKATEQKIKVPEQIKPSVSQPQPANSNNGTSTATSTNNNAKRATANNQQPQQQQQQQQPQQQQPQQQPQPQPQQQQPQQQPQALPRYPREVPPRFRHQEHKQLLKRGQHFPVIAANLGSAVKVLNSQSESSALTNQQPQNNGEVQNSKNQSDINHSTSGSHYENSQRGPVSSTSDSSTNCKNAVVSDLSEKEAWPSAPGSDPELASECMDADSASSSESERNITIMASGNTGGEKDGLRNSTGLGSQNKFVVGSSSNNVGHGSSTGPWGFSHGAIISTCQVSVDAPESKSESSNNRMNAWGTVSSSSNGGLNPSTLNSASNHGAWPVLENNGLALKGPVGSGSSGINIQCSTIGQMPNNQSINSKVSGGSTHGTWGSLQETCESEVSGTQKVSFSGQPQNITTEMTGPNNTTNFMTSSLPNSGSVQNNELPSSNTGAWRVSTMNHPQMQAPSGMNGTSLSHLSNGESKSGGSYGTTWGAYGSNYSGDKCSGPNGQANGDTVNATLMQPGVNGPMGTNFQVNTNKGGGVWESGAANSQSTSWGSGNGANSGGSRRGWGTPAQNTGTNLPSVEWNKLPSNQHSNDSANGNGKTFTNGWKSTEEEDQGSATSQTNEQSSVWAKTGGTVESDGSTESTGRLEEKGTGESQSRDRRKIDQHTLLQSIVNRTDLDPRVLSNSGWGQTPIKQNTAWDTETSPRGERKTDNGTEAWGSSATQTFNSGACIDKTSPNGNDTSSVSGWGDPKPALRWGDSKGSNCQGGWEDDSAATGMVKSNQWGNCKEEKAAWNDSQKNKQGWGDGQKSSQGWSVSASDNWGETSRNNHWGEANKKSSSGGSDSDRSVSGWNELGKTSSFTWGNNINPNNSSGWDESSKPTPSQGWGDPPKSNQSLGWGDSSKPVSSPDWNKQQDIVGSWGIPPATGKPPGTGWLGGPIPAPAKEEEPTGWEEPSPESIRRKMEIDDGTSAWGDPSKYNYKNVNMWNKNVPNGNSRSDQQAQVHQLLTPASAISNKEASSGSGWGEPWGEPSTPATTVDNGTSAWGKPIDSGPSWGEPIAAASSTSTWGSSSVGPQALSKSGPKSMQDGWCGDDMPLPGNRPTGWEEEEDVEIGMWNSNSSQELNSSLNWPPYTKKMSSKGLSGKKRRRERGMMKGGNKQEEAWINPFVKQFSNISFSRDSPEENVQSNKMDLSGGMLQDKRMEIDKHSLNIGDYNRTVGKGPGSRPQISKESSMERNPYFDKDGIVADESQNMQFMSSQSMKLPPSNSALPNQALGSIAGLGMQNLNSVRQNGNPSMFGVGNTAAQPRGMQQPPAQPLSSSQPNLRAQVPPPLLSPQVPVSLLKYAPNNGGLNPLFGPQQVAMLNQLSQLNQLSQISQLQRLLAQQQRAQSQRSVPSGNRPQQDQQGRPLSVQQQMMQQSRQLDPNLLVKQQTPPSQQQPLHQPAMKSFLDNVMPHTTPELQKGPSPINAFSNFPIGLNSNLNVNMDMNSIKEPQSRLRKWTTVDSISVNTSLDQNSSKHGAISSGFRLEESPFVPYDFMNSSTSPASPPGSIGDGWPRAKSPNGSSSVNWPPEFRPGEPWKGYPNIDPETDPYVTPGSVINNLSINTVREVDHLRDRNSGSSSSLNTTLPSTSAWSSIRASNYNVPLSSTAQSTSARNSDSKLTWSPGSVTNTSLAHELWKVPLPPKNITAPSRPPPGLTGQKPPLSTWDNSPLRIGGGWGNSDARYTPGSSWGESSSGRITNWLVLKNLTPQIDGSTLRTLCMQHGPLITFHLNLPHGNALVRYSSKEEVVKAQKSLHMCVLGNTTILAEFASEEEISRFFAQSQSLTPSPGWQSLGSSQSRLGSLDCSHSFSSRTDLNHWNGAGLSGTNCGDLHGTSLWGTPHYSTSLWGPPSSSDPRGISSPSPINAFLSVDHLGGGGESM

For the next experiment, the target named is myc-NBirA*-14-3-3ɛ (UniProt P62258). The experiment is described as above.
The target of the next experiment is CBirA*-Ago2 (UniProt Q9UKV8). The experiment can be described thus: split reporter; split-BioID protein fragment complementation (BirA* split at E256/G257): NBirA* and CBirA* fusions co-expressed in transiently transfected HeLa 11ht cells; 50 μM biotin, 200 ng/ml doxycycline, 24 h, no rapamycin; biotinylation in lysates read on blots with Alexa680-labelled streptavidin.

In experiment [2] the target is T1, FLAG-CBirA*-Cdc25C WT. The description is as above.
Experiment [3] deals with T2, GIGYF2 (human (endogenous in HeLa)) (UniProt Q6Y7W6).
T2 sequence: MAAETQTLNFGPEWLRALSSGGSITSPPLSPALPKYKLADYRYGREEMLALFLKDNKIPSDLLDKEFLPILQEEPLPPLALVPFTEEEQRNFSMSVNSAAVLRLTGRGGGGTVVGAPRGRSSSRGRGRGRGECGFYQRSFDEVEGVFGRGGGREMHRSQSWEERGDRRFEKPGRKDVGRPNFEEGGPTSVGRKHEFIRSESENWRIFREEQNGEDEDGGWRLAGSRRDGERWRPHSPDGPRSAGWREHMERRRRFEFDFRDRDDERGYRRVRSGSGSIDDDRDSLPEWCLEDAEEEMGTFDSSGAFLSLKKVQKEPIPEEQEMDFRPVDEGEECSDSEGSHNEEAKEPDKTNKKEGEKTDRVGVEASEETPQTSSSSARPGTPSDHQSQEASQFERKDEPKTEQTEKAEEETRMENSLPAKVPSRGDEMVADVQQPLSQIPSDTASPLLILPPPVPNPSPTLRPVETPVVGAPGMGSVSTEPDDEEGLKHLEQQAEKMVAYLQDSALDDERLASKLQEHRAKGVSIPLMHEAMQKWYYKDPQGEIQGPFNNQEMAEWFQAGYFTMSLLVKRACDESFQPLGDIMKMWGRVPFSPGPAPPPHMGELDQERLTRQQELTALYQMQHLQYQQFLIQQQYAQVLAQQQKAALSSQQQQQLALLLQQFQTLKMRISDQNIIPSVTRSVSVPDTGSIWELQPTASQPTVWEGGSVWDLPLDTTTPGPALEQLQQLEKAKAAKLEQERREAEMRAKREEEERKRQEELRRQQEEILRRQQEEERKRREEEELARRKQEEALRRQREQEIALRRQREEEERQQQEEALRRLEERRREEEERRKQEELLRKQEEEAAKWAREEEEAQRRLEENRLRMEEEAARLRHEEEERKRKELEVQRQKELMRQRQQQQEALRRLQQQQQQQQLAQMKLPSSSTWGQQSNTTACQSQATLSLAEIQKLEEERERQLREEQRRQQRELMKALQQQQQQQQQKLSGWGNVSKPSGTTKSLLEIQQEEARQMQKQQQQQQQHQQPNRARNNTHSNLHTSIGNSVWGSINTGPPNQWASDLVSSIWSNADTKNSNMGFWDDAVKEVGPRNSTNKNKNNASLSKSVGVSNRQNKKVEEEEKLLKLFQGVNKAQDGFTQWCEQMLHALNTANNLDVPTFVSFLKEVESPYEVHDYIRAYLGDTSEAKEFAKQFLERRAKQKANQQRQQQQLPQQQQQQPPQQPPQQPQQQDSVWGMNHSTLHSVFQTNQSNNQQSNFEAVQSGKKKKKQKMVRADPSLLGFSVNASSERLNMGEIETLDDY
The experiment can be described thus: co-IP; endogenous proteins from HeLa 11ht lysate pre-treated with micrococcal nuclease (14 gel units per μl, 1.5 mM CaCl2, 25 min at RT); anti-GIGYF2 on beads; western blot.

For experiment [4], the target named is T2, GIGYF2 (human (endogenous in HeLa)). The experiment can be described thus: co-IP; endogenous proteins from HeLa 11ht lysate, without micrococcal nuclease; anti-Ago2, anti-TNRC6A, anti-GIGYF2 or control IgG (5 μg each) on beads; western blot.

Results are given in words; binding and its absence hold for the method and conditions named. In cells and extracts the contact can be indirect. Some binding calls cover weakened binding; strength is not graded here. For part of these data: Tags and fused reporters may be left off the sequences shown.

On to CKAP5 (from UniProt Q14008 1-2032), for which the binding result with FLAG-CBirA*-Cdc25C WT [1] and with myc-NBirA*-14-3-3ɛ was “no binding” each time.

With “NBirA*-Dicer (from UniProt Q9UPY3 1-1922) (enzyme)”, the binding result in the experiment with CBirA*-Ago2 was “binds”.

With “myc-NBirA*-14-3-3ɛ (from UniProt P62258 1-255)”, the binding entry with FLAG-CBirA*-Cdc25C WT [2] is listed as “binds”.

For the substance TNRC6A (from UniProt Q8NDV7 1-1962), the binding result in experiment [3] and in experiment [4] was “binds weakly” throughout.

The values are drawn from publication PMC5467174.
